These are yes or no findings as the source states them, for the method shown. In cells and extracts the contact can be indirect. Some results given as binding are weak or reduced against the parent protein; the word gives no strength. For part of these data: Tags and fused reporters may be left off the sequences shown.
B1: Hexokinase domain containing 1 (HKDC1), endogenous (enzyme, UniProt Q2TB90 1-917)
chain: MFAVHLMAFYFSKLKEDQIKKVDRFLYHMRLSDDTLLDIMRRFRAEMEKGLAKDTNPTAAVKMLPTFVRAIPDGSENGEFLSLDLGGSKFRVLKVQVAEEGKRHVQMESQFYPTPNEIIRGNGTELFEYVADCLADFMKTKDLKHKKLPLGLTFSFPCRQTKLEEGVLLSWTKKFKARGVQDTDVVSRLTKAMRRHKDMDVDILALVNDTVGTMMTCAYDDPYCEVGVIIGTGTNACYMEDMSNIDLVEGDEGRMCINTEWGAFGDDGALEDIRTEFDRELDLGSLNPGKQLFEKMISGLYLGELVRLILLKMAKAGLLFGGEKSSALHTKGKIETRHVAAMEKYKEGLANTREILVDLGLEPSEADCIAVQHVCTIVSFRSANLCAAALAAILTRLRENKKVERLRTTVGMDGTLYKIHPQYPKRLHKVVRKLVPSCDVRFLLSESGSTKGAAMVTAVASRVQAQRKQIDRVLALFQLTREQLVDVQAKMRAELEYGLKKKSHGLATVRMLPTYVCGLPDGTEKGKFLALDLGGTNFRVLLVKIRSGRRSVRMYNKIFAIPLEIMQGTGEELFDHIVQCIADFLDYMGLKGASLPLGFTFSFPCRQMSIDKGTLIGWTKGFKATDCEGEDVVDMLREAIKRRNEFDLDIVAVVNDTVGTMMTCGYEDPNCEIGLIAGTGSNMCYMEDMRNIEMVEGGEGKMCINTEWGGFGDNGCIDDIWTRYDTEVDEGSLNPGKQRYEKMTSGMYLGEIVRQILIDLTKQGLLFRGQISERLRTRGIFETKFLSQIESDRLALLQVRRILQQLGLDSTCEDSIVVKEVCGAVSRRAAQLCGAGLAAIVEKRREDQGLEHLRITVGVDGTLYKLHPHFSRILQETVKELAPRCDVTFMLSEDGSGKGAALITAVAKRLQQAQKEN
B2: Ubiquitin-specific protease 15 (USP15), endogenous (enzyme, UniProt Q9Y4E8 1-981)
chain: MAEGGAADLDTQRSDIATLLKTSLRKGDTWYLVDSRWFKQWKKYVGFDSWDKYQMGDQNVYPGPIDNSGLLKDGDAQSLKEHLIDELDYILLPTEGWNKLVSWYTLMEGQEPIARKVVEQGMFVKHCKVEVYLTELKLCENGNMNNVVTRRFSKADTIDTIEKEIRKIFSIPDEKETRLWNKYMSNTFEPLNKPDSTIQDAGLYQGQVLVIEQKNEDGTWPRGPSTPKSPGASNFSTLPKISPSSLSNNYNNMNNRNVKNSNYCLPSYTAYKNYDYSEPGRNNEQPGLCGLSNLGNTCFMNSAIQCLSNTPPLTEYFLNDKYQEELNFDNPLGMRGEIAKSYAELIKQMWSGKFSYVTPRAFKTQVGRFAPQFSGYQQQDCQELLAFLLDGLHEDLNRIRKKPYIQLKDADGRPDKVVAEEAWENHLKRNDSIIVDIFHGLFKSTLVCPECAKISVTFDPFCYLTLPLPMKKERTLEVYLVRMDPLTKPMQYKVVVPKIGNILDLCTALSALSGIPADKMIVTDIYNHRFHRIFAMDENLSSIMERDDIYVFEININRTEDTEHVIIPVCLREKFRHSSYTHHTGSSLFGQPFLMAVPRNNTEDKLYNLLLLRMCRYVKISTETEETEGSLHCCKDQNINGNGPNGIHEEGSPSEMETDEPDDESSQDQELPSENENSQSEDSVGGDNDSENGLCTEDTCKGQLTGHKKRLFTFQFNNLGNTDINYIKDDTRHIRFDDRQLRLDERSFLALDWDPDLKKRYFDENAAEDFEKHESVEYKPPKKPFVKLKDCIELFTTKEKLGAEDPWYCPNCKEHQQATKKLDLWSLPPVLVVHLKRFSYSRYMRDKLDTLVDFPINDLDMSEFLINPNAGPCRYNLIAVSNHYGGMGGGHYTAFAKNKDDGKWYYFDDSSVSTASEDQIVSKAAYVLFYQRQDTFSGTGFFPLDRETKGASAATGIPLESDEDSNDNDNDIENENCMHTN

Sequences of proteins named here, by UniProt entry; tags and fusion partners are left off.
UniProt O00425: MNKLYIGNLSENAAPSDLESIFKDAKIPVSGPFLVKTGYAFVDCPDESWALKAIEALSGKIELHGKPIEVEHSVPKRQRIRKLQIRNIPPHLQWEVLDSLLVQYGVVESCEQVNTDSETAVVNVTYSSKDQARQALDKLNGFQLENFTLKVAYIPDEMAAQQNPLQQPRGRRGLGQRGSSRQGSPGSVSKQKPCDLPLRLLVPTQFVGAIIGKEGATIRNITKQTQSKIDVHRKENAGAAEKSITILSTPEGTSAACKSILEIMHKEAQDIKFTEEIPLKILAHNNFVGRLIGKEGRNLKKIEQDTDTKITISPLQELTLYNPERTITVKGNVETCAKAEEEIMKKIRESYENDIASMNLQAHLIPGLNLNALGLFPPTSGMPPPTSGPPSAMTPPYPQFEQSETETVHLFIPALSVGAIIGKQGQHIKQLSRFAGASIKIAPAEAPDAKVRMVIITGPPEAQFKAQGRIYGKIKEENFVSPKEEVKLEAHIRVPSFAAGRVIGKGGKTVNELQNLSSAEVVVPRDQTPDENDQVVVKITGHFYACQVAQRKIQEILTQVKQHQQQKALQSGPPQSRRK

Legend:
[1] = target: T1, Ubiquitin-specific protease 15 (USP15), endogenous (human (endogenous in SGC7901)) (UniProt Q9Y4E8); assay: co-IP; SGC7901 cell lysates immunoprecipitated with anti-USP15 antibody, IgG as negative control; western blot for HKDC1, IGF2BP3 and USP15
T1 sequence: B2 chain

[2] = target: T2, Flag-tagged USP15 (pcDNA3.1-USP15-Flag) (human) (UniProt Q9Y4E8); assay: co-IP; lysates of N87 Flag-USP15 cells or Flag-EV cells immunoprecipitated with anti-Flag; western blot for HKDC1, IGF2BP3 and USP15
T2 sequence: B2 chain

[3] = target: Insulin like growth factor 2 mRNA binding protein 3 (IGF2BP3), endogenous (human (endogenous in SGC7901 and NCI-N87)) (UniProt O00425); assay: co-IP; SGC7901 cell lysates immunoprecipitated with anti-HKDC1 or anti-IGF2BP3 antibody, IgG as negative control; western blot for HKDC1, IGF2BP3 and USP15
[4] = target: T3, Hexokinase domain containing 1 (HKDC1), endogenous (human (endogenous in SGC7901 and NCI-N87)) (UniProt Q2TB90); assay: as above
T3 sequence: B1 chain

Molecule | binding [1] | binding [2] | binding [3] | binding [4]
Insulin like growth factor 2 mRNA binding protein 3 (IGF2BP3), endogenous (from UniProt O00425 1-579) | binds | binds |  | 
B1 | binds | binds |  | 
B2 |  |  | binds | binds

Source: paper PMC11334570
